Data reported in patent US20120121576A1.
These are yes or no findings as the source states them, for the method shown. Some results given as binding are weak or reduced against the parent protein; the word gives no strength.

By UniProt entry, the sequences of proteins in these tests, tags left out. Where a name states a change or a piece, a line headed by the entry shows the natural chain unless it says otherwise.
UniProt P27037: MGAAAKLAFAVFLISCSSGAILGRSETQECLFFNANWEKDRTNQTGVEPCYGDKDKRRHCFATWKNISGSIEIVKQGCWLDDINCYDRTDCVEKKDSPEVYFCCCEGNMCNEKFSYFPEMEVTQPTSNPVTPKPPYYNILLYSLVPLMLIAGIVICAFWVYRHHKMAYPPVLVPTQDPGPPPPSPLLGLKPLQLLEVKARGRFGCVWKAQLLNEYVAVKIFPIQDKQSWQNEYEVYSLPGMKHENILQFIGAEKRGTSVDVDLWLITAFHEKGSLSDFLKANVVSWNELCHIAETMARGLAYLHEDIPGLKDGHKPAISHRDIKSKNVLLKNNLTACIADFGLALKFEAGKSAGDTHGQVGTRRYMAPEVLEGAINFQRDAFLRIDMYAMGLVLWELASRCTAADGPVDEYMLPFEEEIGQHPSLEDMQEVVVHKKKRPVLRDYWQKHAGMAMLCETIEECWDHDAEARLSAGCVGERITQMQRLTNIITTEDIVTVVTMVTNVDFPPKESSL

Molecular target: ActRIIA-Fc (ActRIIA-mFc, dimeric protein) (human) (UniProt P27037)
Assay: SPR (BIACORE) competition; captured Ab-14E1, 50 nM ActRIIA-Fc premixed with ligand up to 100 nM; competitor Ab-14E1

| binding | Binder |
| --- | --- |
| binds | activin B (ligand, UniProt P09529 293-407, looked up) GLECDGRTNLCCRQQFFIDFRLIGWNDWIIAPTGYYGNYCEGSCPAYLAGVPGSASSFHTAVVNQYRMRGLNPGTVNSCCIPTKLSTMSMLYFDDEYNIVKRDVPNMIVEECGCA |
| binds | GDF-11 (ligand, UniProt O95390 299-407, looked up) NLGLDCDEHSSESRCCRYPLTVDFEAFGWDWIIAPKRYKANYCSGQCEYMFMQKYPHTHLVQQANPRGSAGPCCTPTKMSPINMLYFNDKQQIIYGKIPGMVVDRCGCS |
